Taken from: PubChem BioAssay AID1159584 (Peter MacCallum Cancer Centre, 2016)

- Assay: 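Knock-downs that harm CDH1-null cells more than parental MCF10A cells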 (primary screen)
- Cell system: human MCF10A breast epithelial cells, parental and CDH1-null
- Reagents: siRNA against human genes
- Measured: 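ATP luminescence (CellTiter-Glo) viability per line relative to mean mock wells over all plates, and the ratio of CDH1-null to parental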
- Reading the numbers: CDH1-null / parental viability ratio: higher = CDH1-null cells survive relatively better than parental; CDH1-null viability vs mock: higher = more viable CDH1-null cells; parental viability vs mock: higher = more viable parental cells
Shown is an unselected part of about 18,000 reagents tested. Reagents against one gene are numbered here. Not stated in the record: the amount of reagent, the time to read-out.

The opening 5 records as a preview:
gene | siRNA no. | CDH1-null / parental viability ratio | CDH1-null viability vs mock (fraction of mock) | parental viability vs mock (fraction of mock)
ZSCAN31 (zinc finger and SCAN domain containing 31) | 1 | 0.95 | 0.94 | 0.99
MAMDC2 (MAM domain containing 2) | 1 | 1.14 | 1.06 | 0.93
BEST2 (bestrophin 2) | 1 | 0.86 | 0.82 | 0.95
ATF7IP2 (activating transcription factor 7 interacting protein 2) | 1 | 0.91 | 0.62 | 0.68
PROC (protein C, inactivator of coagulation factors Va and VIIIa) | 1 | 1.03 | 0.31 | 0.3

Results, from the start:
gene | siRNA no. | CDH1-null / parental viability ratio | CDH1-null viability vs mock (fraction of mock) | parental viability vs mock (fraction of mock)
ZSCAN31 (zinc finger and SCAN domain containing 31) | 1 | 0.95 | 0.94 | 0.99
MAMDC2 (MAM domain containing 2) | 1 | 1.14 | 1.06 | 0.93
BEST2 (bestrophin 2) | 1 | 0.86 | 0.82 | 0.95
ATF7IP2 (activating transcription factor 7 interacting protein 2) | 1 | 0.91 | 0.62 | 0.68
PROC (protein C, inactivator of coagulation factors Va and VIIIa) | 1 | 1.03 | 0.31 | 0.3
OR2J3 (olfactory receptor family 2 subfamily J member 3) | 1 | 1.14 | 0.82 | 0.72
TRIM46 (tripartite motif containing 46) | 1 | 0.79 | 0.85 | 1.08
GPR68 (G protein-coupled receptor 68) | 1 | 1.06 | 0.83 | 0.78
CARINH | 1 | 1.02 | 1.14 | 1.12
SLC30A7 | 1 | 1.02 | 0.98 | 0.96
TAPBP (TAP binding protein) | 1 | 1.03 | 0.37 | 0.36
TNRC6B (trinucleotide repeat containing adaptor 6B) | 1 | 0.96 | 0.92 | 0.96
SLC41A2 | 1 | 0.69 | 0.52 | 0.75
IRS1 (insulin receptor substrate 1) | 1 | 0.84 | 0.76 | 0.9
ETFB (electron transfer flavoprotein subunit beta) | 1 | 1.01 | 0.93 | 0.92
TRIM75 (tripartite motif containing 75) | 1 | 0.94 | 0.94 | 1
ST8SIA4 (ST8 alpha-N-acetyl-neuraminide alpha-2,8-sialyltransferase 4) | 1 | 1.11 | 1.02 | 0.92
GTPBP6 (GTP binding protein 6) | 1 | 1.03 | 0.66 | 0.64
PRR7 (proline rich 7, synaptic) | 1 | 1.22 | 0.78 | 0.64
ECHDC3 (enoyl-CoA hydratase domain containing 3) | 1 | 0.91 | 0.8 | 0.88
CS (citrate synthase) | 1 | 0.76 | 0.71 | 0.94
SYT5 (synaptotagmin 5) | 1 | 1.27 | 0.9 | 0.71
GNMT (glycine N-methyltransferase) | 1 | 1.16 | 1.11 | 0.96
OR1L8 (olfactory receptor family 1 subfamily L member 8) | 1 | 1.17 | 1.05 | 0.9
EML5 (EMAP like 5) | 1 | 0.92 | 0.83 | 0.9
TIPRL (TOR signaling pathway regulator) | 1 | 1.01 | 0.85 | 0.84
TXLNGY (taxilin gamma Y-linked (pseudogene)) | 1 | 1.06 | 0.91 | 0.86
TXLNGY (taxilin gamma Y-linked (pseudogene)) | 2 | 0.74 | 0.48 | 0.65
SCN7A (sodium voltage-gated channel alpha subunit 7) | 1 | 1.13 | 0.97 | 0.86
TMEM170A (transmembrane protein 170A) | 1 | 0.95 | 0.92 | 0.97
ZSCAN18 (zinc finger and SCAN domain containing 18) | 1 | 0.98 | 0.87 | 0.89
MRPL57 (mitochondrial ribosomal protein L57) | 1 | 1.28 | 1 | 0.78
TRIM36 (tripartite motif containing 36) | 1 | 0.88 | 0.66 | 0.75
YY2 (YY2 transcription factor) | 1 | 0.97 | 0.93 | 0.96
PCDHA1 (protocadherin alpha 1) | 1 | 0.96 | 0.53 | 0.55
IDUA (alpha-L-iduronidase) | 1 | 0.96 | 0.79 | 0.82
MBOAT2 (membrane bound glycerophospholipid O-acyltransferase 2) | 1 | 1.21 | 1.09 | 0.9
SYT10 (synaptotagmin 10) | 1 | 1.06 | 1.02 | 0.96
IFT122 (intraflagellar transport 122) | 1 | 1.02 | 0.86 | 0.84
ACTBL2 (actin beta like 2) | 1 | 0.88 | 0.9 | 1.02
E2F3 (E2F transcription factor 3) | 1 | 0.93 | 0.83 | 0.89
BAK1 (BCL2 antagonist/killer 1) | 1 | 1.05 | 0.86 | 0.82
COL21A1 (collagen type XXI alpha 1 chain) | 1 | 0.88 | 0.86 | 0.98
HES5 (hes family bHLH transcription factor 5) | 1 | 1.21 | 0.94 | 0.78
NDUFA1 (NADH:ubiquinone oxidoreductase subunit A1) | 1 | 0.71 | 0.54 | 0.76
KCNA5 (potassium voltage-gated channel subfamily A member 5) | 1 | 1.19 | 0.94 | 0.79
RAB8A (RAB8A, member RAS oncogene family) | 1 | 0.95 | 0.78 | 0.82
GNRH2 (gonadotropin releasing hormone 2) | 1 | 1.39 | 0.86 | 0.62
ZCCHC8 (zinc finger CCHC-type containing 8) | 1 | 1.06 | 1.23 | 1.16
BLTP2 (bridge-like lipid transfer protein family member 2) | 1 | 1.12 | 0.57 | 0.51
RPS4Y2 (ribosomal protein S4 Y-linked 2) | 1 | 1.94 | 0.7 | 0.36
CARS1 (cysteinyl-tRNA synthetase 1) | 1 | 0.92 | 0.83 | 0.9
TMEM222 (transmembrane protein 222) | 1 | 1 | 0.78 | 0.78
PRIMPOL (primase and DNA directed polymerase) | 1 | 1.03 | 0.78 | 0.76
TASL (TLR adaptor interacting with endolysosomal SLC15A4) | 1 | 0.83 | 0.76 | 0.92
CPM (carboxypeptidase M) | 1 | 0.99 | 0.81 | 0.82
COL19A1 (collagen type XIX alpha 1 chain) | 1 | 0.97 | 0.88 | 0.91
SHTN1 (shootin 1) | 1 | 0.75 | 0.66 | 0.88
STIL (STIL centriolar assembly protein) | 1 | 0.8 | 0.67 | 0.84
ZNF786 (zinc finger protein 786) | 1 | 1.17 | 0.62 | 0.53
R3HDM1 (R3H domain containing 1) | 1 | 0.83 | 0.48 | 0.58
RFC3 (replication factor C subunit 3) | 1 | 1.01 | 0.92 | 0.91
HLA-DRA (major histocompatibility complex, class II, DR alpha) | 1 | 1.16 | 1.08 | 0.93
E2F6 (E2F transcription factor 6) | 1 | 1.05 | 0.99 | 0.94
FLT1 (fms related receptor tyrosine kinase 1) | 1 | 0.98 | 0.86 | 0.88
PLCG1 (phospholipase C gamma 1) | 1 | 0.79 | 0.6 | 0.76
NUDT12 (nudix hydrolase 12) | 1 | 1.39 | 0.86 | 0.62
CCDC144NL (CCDC144A N-terminal like (pseudogene)) | 1 | 0.91 | 0.74 | 0.81
